# This is one part of the list. The data scatter; read single values as rough.
# Chains of the proteins cited; added tags and fusions are not shown. Where a name states a change or a piece, a line headed by the entry shows the natural chain unless it says otherwise. Chains listed by the source or under a name are the forms on record and can include a tag or linker. Residues count along the entry.
# UniProt Q9UGU5: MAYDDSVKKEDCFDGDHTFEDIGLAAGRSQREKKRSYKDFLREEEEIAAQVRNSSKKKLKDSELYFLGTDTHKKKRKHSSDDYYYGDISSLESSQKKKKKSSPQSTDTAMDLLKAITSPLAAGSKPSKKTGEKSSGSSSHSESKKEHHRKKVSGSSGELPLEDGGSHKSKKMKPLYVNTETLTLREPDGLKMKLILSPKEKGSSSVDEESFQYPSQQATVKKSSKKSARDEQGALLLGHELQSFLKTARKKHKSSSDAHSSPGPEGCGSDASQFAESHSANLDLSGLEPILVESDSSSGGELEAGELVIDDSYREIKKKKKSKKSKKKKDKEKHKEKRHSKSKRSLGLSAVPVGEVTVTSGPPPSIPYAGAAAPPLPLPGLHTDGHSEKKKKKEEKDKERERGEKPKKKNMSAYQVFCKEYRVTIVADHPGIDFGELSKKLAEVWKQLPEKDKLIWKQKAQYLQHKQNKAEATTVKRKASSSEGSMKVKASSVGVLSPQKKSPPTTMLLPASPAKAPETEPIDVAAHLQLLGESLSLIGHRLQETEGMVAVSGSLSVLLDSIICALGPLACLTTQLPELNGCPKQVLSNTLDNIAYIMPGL
# UniProt Q9ULT8, 1382-1403: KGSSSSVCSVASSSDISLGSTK
# UniProt P13807: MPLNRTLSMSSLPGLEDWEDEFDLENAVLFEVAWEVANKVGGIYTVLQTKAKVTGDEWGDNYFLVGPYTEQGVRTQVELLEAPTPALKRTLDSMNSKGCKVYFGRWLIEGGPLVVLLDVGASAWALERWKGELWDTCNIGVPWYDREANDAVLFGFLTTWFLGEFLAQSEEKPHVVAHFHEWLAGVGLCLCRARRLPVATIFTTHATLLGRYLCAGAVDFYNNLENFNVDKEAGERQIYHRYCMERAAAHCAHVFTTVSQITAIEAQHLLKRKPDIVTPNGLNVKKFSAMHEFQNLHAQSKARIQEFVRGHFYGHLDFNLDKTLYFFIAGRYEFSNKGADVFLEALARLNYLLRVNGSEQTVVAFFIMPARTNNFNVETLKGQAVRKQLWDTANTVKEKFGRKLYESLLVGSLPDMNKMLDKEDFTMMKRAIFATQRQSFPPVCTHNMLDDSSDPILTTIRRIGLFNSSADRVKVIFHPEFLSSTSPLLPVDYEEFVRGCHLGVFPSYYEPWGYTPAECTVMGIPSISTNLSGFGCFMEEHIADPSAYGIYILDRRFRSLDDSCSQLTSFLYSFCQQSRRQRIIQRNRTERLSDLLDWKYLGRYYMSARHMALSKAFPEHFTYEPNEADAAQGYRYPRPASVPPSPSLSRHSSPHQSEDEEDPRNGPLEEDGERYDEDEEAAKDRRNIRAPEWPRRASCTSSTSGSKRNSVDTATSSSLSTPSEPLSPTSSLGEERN
# UniProt Q96FZ2: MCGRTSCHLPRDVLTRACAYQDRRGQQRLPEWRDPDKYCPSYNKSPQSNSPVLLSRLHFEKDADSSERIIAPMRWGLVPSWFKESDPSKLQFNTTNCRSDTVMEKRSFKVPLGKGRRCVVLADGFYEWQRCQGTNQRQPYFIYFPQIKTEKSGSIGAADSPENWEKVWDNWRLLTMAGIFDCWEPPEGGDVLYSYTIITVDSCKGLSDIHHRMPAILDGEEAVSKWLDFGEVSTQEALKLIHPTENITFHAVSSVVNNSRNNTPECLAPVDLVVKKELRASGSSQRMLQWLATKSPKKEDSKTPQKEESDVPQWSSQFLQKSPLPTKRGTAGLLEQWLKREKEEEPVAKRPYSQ
# UniProt Q9NRZ9, 154-175: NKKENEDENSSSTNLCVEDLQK
# UniProt Q7Z4Q2: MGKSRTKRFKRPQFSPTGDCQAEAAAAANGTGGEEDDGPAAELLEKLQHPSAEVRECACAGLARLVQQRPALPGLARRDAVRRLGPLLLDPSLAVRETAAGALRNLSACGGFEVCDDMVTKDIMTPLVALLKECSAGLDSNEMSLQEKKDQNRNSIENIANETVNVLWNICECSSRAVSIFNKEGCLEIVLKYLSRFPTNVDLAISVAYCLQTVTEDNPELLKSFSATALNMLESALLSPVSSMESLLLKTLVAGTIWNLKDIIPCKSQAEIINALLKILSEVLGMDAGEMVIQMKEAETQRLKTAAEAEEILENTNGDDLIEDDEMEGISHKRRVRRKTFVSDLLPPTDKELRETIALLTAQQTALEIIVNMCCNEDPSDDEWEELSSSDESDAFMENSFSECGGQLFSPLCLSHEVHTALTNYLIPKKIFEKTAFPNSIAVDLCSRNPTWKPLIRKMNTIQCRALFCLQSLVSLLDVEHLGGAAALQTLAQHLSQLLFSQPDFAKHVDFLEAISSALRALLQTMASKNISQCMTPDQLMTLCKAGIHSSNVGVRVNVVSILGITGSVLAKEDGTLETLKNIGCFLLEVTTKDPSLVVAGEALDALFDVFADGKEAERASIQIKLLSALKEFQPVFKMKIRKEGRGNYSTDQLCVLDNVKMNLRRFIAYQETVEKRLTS
# UniProt P51858, 106-126: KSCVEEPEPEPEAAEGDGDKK
# UniProt O75330: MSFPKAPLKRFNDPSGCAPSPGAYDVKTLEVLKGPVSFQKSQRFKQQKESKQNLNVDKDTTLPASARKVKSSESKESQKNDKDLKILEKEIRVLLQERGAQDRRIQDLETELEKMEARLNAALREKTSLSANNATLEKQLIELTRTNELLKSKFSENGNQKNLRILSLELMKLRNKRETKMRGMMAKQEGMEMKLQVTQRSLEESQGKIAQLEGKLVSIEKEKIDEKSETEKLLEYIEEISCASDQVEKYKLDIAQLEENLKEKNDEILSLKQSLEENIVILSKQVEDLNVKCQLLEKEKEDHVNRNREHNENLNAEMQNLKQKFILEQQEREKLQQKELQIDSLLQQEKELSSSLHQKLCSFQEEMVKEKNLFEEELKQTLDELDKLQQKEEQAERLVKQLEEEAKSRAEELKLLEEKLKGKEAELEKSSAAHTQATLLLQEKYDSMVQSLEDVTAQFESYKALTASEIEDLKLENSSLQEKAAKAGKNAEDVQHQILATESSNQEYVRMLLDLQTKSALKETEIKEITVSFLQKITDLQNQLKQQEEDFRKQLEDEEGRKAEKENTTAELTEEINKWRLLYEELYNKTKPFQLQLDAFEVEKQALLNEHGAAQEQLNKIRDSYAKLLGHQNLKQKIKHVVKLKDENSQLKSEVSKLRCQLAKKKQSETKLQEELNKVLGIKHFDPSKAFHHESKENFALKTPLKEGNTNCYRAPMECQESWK
# UniProt Q9BXW7, 100-124: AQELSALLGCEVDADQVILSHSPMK
# UniProt Q96MH2, 1-22: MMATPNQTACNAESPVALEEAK
# UniProt P52789: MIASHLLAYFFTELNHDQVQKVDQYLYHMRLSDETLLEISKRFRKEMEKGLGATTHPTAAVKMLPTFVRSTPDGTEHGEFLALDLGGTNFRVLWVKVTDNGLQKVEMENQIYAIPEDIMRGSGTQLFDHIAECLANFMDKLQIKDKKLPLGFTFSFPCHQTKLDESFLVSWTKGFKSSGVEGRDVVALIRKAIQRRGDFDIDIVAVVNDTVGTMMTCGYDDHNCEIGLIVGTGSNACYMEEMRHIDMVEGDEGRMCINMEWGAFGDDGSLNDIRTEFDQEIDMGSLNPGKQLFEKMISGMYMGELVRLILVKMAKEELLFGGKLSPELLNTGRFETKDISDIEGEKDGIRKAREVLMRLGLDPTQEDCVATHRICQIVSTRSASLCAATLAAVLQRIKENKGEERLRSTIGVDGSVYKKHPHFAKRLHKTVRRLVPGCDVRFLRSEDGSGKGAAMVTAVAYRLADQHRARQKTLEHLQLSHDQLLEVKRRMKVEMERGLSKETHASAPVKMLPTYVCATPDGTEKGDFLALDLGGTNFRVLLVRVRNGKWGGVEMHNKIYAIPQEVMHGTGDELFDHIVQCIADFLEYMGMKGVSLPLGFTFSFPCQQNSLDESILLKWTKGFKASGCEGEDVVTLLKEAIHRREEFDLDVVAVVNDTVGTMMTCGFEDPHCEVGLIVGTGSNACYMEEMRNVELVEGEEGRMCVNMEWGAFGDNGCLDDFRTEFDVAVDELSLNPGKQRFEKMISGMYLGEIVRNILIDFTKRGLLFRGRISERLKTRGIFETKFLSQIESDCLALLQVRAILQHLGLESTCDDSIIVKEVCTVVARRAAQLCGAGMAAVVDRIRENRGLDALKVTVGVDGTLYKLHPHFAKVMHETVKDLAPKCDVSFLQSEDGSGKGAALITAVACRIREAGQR
# UniProt Q14527: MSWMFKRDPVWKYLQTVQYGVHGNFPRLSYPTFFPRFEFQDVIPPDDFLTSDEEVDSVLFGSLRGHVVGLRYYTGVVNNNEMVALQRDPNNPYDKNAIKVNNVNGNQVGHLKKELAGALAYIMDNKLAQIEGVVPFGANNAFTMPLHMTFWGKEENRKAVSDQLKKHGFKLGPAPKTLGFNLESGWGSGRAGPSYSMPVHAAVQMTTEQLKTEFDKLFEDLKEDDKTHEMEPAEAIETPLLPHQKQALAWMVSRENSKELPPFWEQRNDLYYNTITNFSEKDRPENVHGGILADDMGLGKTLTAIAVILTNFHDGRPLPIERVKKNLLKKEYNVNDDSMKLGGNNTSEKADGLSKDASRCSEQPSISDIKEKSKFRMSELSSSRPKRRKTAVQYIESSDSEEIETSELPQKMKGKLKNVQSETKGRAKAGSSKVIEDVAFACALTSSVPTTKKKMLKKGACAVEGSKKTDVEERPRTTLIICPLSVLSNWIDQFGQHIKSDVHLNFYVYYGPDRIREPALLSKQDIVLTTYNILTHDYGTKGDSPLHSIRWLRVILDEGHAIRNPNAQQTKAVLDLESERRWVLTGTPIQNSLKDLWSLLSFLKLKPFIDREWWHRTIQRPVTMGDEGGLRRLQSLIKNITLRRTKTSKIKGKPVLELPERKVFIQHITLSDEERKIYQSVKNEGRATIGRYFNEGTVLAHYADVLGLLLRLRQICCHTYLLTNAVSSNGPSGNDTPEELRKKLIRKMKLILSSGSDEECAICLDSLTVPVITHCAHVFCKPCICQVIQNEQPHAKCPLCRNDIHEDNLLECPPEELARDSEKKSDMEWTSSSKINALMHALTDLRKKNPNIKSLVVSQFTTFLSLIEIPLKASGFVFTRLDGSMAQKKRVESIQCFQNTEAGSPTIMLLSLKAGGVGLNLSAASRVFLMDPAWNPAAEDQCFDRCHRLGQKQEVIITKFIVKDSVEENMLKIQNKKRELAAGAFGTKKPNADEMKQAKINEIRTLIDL
# UniProt P30519: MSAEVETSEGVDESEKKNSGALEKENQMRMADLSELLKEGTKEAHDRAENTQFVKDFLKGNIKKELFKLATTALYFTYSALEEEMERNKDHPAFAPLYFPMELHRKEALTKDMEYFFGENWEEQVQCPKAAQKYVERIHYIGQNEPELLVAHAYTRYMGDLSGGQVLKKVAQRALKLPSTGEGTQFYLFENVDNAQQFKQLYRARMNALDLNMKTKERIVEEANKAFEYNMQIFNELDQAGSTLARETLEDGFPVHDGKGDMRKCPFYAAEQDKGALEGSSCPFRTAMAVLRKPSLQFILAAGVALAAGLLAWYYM
# UniProt Q15751, 1427-1448: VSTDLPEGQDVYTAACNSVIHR
# UniProt Q9UII4: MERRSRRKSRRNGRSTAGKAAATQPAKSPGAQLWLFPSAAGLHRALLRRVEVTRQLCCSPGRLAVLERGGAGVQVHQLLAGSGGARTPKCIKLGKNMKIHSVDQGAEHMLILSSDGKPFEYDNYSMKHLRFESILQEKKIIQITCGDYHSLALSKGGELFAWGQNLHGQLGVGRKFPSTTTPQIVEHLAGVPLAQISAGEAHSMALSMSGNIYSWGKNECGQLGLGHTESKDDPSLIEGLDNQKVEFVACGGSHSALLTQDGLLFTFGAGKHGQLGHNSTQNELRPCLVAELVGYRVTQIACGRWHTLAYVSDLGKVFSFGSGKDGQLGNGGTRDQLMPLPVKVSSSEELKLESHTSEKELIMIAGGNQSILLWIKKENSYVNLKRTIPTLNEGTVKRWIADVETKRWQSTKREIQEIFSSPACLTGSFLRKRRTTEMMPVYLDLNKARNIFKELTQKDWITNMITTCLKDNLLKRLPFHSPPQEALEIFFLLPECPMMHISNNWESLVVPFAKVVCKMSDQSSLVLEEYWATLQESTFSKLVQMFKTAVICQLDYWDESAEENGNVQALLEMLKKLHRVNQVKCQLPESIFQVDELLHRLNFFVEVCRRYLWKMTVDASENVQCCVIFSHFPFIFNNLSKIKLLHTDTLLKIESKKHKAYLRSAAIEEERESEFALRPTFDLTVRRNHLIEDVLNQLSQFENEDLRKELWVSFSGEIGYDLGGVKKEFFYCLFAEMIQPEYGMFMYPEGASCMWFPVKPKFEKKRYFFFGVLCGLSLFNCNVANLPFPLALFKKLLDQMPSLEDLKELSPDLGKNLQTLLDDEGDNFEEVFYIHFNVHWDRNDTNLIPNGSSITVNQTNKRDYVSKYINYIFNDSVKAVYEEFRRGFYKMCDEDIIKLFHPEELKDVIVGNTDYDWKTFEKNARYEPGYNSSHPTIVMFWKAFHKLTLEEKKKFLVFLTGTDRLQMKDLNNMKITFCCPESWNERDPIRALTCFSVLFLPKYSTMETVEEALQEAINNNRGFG
# HLA-C_(C345,C345,C350,C350,C364,C364), as listed by the source: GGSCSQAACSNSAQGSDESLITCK
# Columns and labels:
# [1] = compound: ClCC(=O)N[C@@H]1CCCc2ccccc12; assay: log2 mean competition ratio of IA-DTB cysteine labelling (DMSO/compound) (log2 ratio); higher = stronger cysteine engagement by compound; conditions: treatment time: 4 h, cell line lysate: HEK293T
# Description: (§1)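 IA-DTB competitive cysteine chemoproteomics in HEK293T RIPA lysate. Lysates were treated with compound 29 or 30 at 50 or 200 µM for 4 h, then IA-DTB (500 µM, 1 h), trypsin-digested, NeutrAvidin-enriched and analysed by diaPASEF. Competition ratio = intensity DMSO / intensity compound (n=4 treated, n=64 DMSO); binding: mean log2 CR ≥ 1 and p ≤ 0.05 plus QC filters. Target is the cysteine site.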
# [2] = compound: ClCC(=O)N[C@H]1CCCc2ccccc12; assay: as above; conditions: treatment time: 4 h, cell line lysate: HEK293T
# Description: as §1
Target,log2 mean competition ratio ([1]; 50 µM),log2 mean competition ratio ([1]; 200 µM),log2 mean competition ratio ([2]; 50 µM),log2 mean competition ratio ([2]; 200 µM)
HEATR1 C1143 (UniProt Q9H583),0.582,-0.0706,0.328,-0.262
HNRNPC C46 (UniProt P07910),0.376,-0.562,0.25,-0.561
HGS C75 (UniProt O14964),0.0757,-0.187,-0.0635,-0.29
HERC2 C2760 (UniProt O95714),-0.228,0.0916,-0.397,-0.307
HMGXB4 C418 (UniProt Q9UGU5),0.569,0.184,0.443,0.0982
HECTD1 C507 (UniProt Q9ULT8),-0.302,0.11,-0.395,0.171
GYS1 C699 (UniProt P13807),0.12,-0.24,0.0291,-0.109
HOXA5 C233,0.2,0.428,-0.0862,0.19
HOOK2 C423 (UniProt Q96ED9),-0.242,-0.339,0.252,-0.352
HMCES C131 (UniProt Q96FZ2),0.032,0.0387,-0.0483,0.112
GTPBP4 C336 (UniProt Q9BZE4),-0.0662,0.193,-0.149,0.207
GTF3C5 C242 (UniProt Q9Y5Q8),0.377,0.266,0.26,0.243
HJURP C663 (UniProt Q8NCD3),-0.194,0.376,-0.36,0.0198
HELLS C169 (UniProt Q9NRZ9),-0.36,-0.0674,-0.108,-0.148
HEATR3 C655 (UniProt Q7Z4Q2),-0.0507,0.362,0.0676,0.246
HDGF C108 (UniProt P51858),-0.0348,-0.179,-0.0787,-0.123
HASPIN C219 (UniProt Q8TF76),0.0147,-0.143,-0.313,-0.156
HMMR C361 (UniProt O75330),0.667,0.067,-0.043,0.237
HDHD5 C109 (UniProt Q9BXW7),-0.0167,-0.258,-0.127,-0.398
HMGCR C708 (UniProt P04035),-0.318,0.191,-0.323,0.214
GTSE1 C198 (UniProt Q9NYZ3),0.308,0.106,0.183,-0.0257
GTPBP2 C36 (UniProt Q9BX10),0.307,-0.22,0.3,-0.134
HECTD1 C2071 (UniProt Q9ULT8),-0.195,-0.61,-0.209,-0.197
HOXA13 C194,-0.0743,-0.238,-0.107,-0.301
HMMR C719 (UniProt O75330),0.721,0.467,-0.0135,0.528

# Given with bars between the fields: part of the list above.
Target | log2 mean competition ratio ([1]; 50 µM) | log2 mean competition ratio ([1]; 200 µM) | log2 mean competition ratio ([2]; 50 µM) | log2 mean competition ratio ([2]; 200 µM)
HNRNPC C46 (UniProt P07910) | 0.376 | -0.562 | 0.25 | -0.561
HOXA5 C233 | 0.2 | 0.428 | -0.0862 | 0.19
GTF3C5 C242 (UniProt Q9Y5Q8) | 0.377 | 0.266 | 0.26 | 0.243
HJURP C663 (UniProt Q8NCD3) | -0.194 | 0.376 | -0.36 | 0.0198
GTPBP2 C36 (UniProt Q9BX10) | 0.307 | -0.22 | 0.3 | -0.134
HECTD1 C2071 (UniProt Q9ULT8) | -0.195 | -0.61 | -0.209 | -0.197

# Additional records

Target,log2 mean competition ratio ([1]; 50 µM),log2 mean competition ratio ([1]; 200 µM),log2 mean competition ratio ([2]; 50 µM),log2 mean competition ratio ([2]; 200 µM)
HEXIM2 C10 (UniProt Q96MH2),-0.404,-0.0918,0.0378,-0.0405
HOOK1 C432 (UniProt Q9UJC3),0.369,-0.297,0.0202,-0.126
HNRNPU C562 (UniProt Q00839),0.239,-0.101,0.261,0.0378
HERC4 C175 (UniProt Q5GLZ8),0.161,-0.0924,-0.032,-0.0709
HMGCR C600 (UniProt P04035),0.0641,0.224,0.0197,0.257
HEXA C522 (UniProt P06865),0.205,-0.365,0.352,-0.37
HOXA5 C103,-0.0609,-0.0308,0.169,-0.22
GUSB C644 (UniProt P08236),-0.2,0.00559,0.358,0.414
HEATR5A C841 (UniProt Q86XA9),0.166,-0.127,-0.281,-0.333
HK2 C886 (UniProt P52789),-0.0165,0.0498,0.107,0.109
HAUS2 C200 (UniProt Q9NVX0),-0.15,-0.214,-0.0642,-0.272
HLTF C461 (UniProt Q14527),-0.0268,0.0427,0.1,0.103
HNRNPD C126,-0.278,-0.119,-0.559,-0.147
HELLS C836 (UniProt Q9NRZ9),0.147,-0.332,0.398,0.17
HECTD1 C1855 (UniProt Q9ULT8),0.552,0.198,0.131,0.198
HEATR3 C186 (UniProt Q7Z4Q2),0.0346,-0.163,0.0146,-0.194
HK2 C368 (UniProt P52789),-0.207,0.158,-0.627,0.0546
HEATR5B C356 (UniProt Q9P2D3),0.164,0.347,-0.066,0.0433
HEATR3 C134 (UniProt Q7Z4Q2),0.0748,-0.16,0.84,-0.0986
HNRNPDL C177 (UniProt O14979),-0.154,-0.0552,-0.478,-0.0695
GUF1 C129 (UniProt Q8N442),0.206,-0.129,0.541,-0.128
HELB C60 (UniProt Q8NG08),0.00259,0.135,-0.285,0.214
GTF2E2 C208 (UniProt P29084),0.331,0.139,0.531,0.114
HASPIN C300 (UniProt Q8TF76),-0.105,0.118,-0.289,0.214
HELZ C80 (UniProt P42694),-0.0055,-0.362,-0.166,0.134

Target,log2 mean competition ratio ([1]; 50 µM),log2 mean competition ratio ([1]; 200 µM),log2 mean competition ratio ([2]; 50 µM),log2 mean competition ratio ([2]; 200 µM)
HARS1 C235,-0.125,-0.0836,0.0695,-0.172
"HLA-C_(C345,C345,C350,C350,C364,C364)",-0.158,-0.474,0.0416,-0.566
HK2 C517 (UniProt P52789),-0.248,-0.148,0.0918,0.285
GSTM3 C208 (UniProt P21266),0.0925,0.00325,-0.048,-0.0397
HNRNPLL C84 (UniProt Q8WVV9),0.252,-0.221,0.357,-0.358
HAUS7 C8 (UniProt Q99871),0.2,-0.0176,-0.207,0.304
HMMR C712 (UniProt O75330),0.13,0.0789,0.122,0.209
HOXA11 C200,-0.12,-0.0304,0.0869,0.175
GTF3C1 C1336 (UniProt Q12789),0.227,0.287,-0.0761,0.0279
HNRNPM C694,0.243,0.0192,0.289,0.0206
GTF2A2 C98 (UniProt P52657),0.0719,-0.145,0.163,-0.00296
HMOX2 C127 (UniProt P30519),-0.329,-0.0192,-0.136,-0.0919
HECTD1 C1389 (UniProt Q9ULT8),0.0993,-0.312,0.336,-0.101
HNRNPA3 C196 (UniProt P51991),-0.144,-0.125,-0.492,-0.271
HCFC1 C1872 (UniProt P51610),0.311,0.128,0.603,0.231
HERC1 C1442 (UniProt Q15751),-0.206,-0.145,-0.0463,-0.124
HLA-E C185,-0.0327,0.301,0.0165,0.292
GTPBP4 C174 (UniProt Q9BZE4),0.398,0.146,0.0378,0.263
HEXIM2 C80 (UniProt Q96MH2),0.626,-0.228,0.426,-0.0599
HECTD4 C1488,-0.307,0.09,0.515,0.0399
HECTD4 C3836,-0.248,-0.0802,-0.0542,0.216
HELLS C346 (UniProt Q9NRZ9),0.334,0.145,0.421,-0.19
HERC5 C220 (UniProt Q9UII4),-0.193,-0.0629,-0.335,-0.218
GTF3C1 C1008 (UniProt Q12789),0.316,0.147,0.325,-0.11
HECTD4 C1299,-0.0888,0.0627,-0.238,-0.0535

# Reference: the supplement of paper PMC11732987, “Enantioselective OTUD7B fragment discovery through chemoproteomics screening and high-throughput optimisation” (Communications Chemistry, 2025)
